Mtb glucose medium: 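Phenotypic screen: M. tuberculosis growth, glucose 7H9 medium, 3 days; the read-out is not stated. Tested at 50 µM. The record gives no direction; compounds that gave an IC50 in retests scored well above the rest, so higher reads as more growth inhibition. Size under these conditions: about 69,000 compounds, about 760 of them at 50% or above in at least one test.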
Mtb cholesterol medium: 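Phenotypic screen: M. tuberculosis growth, cholesterol and DPPC medium, 4 days; the read-out is not stated. Concentration: 50 µM. The record gives no direction; compounds that gave an IC50 in retests scored well above the rest, so higher reads as more growth inhibition. Size under these conditions: about 69,000 compounds, about 370 of them at 50% or above in at least one test.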

Values are the deposited “Percent Effect”, in %. How 0% and 100% were set is not recorded. Most values in the screen are low, and negative values occur. Compounds were drawn at random from those tested, without regard to their results. Two or more numbers in one place are separate tests of the same structure; such repeats can differ widely.

compound,Mtb glucose medium,Mtb cholesterol medium
Cc1noc2nc(C3CC3)c(Cl)c(C(=O)O)c12,-3.442,-19.96
CCn1cc(CN(C)S(=O)(=O)c2ccc(Cl)cc2)cn1,19.45,-23.42
COc1ccc2c(c1)C(NCCc1c(C)noc1C)CCCO2 (stereo not shown),23.38,-18.87
[H][C@@]12CNC[C@]1(C(=O)OC)CN(Cc1nc(C)c[nH]1)C2,13.26,13.36
Cc1[nH]c(=O)[nH]c(=O)c1CN1CCCC(CCc2ccccc2F)C1 (stereo not shown),-24.92 & 43.08,18.66
O=C(O)C(F)(F)F.O=C(O)C(F)(F)F.[H][C@@]12CCN(Cc3ccc(C)s3)C[C@]1([H])[C@@H](CN(C)Cc1ccco1)OC2,5.301 & -6.747,1.126
CCNC(=O)C1CCN(Cn2nc(-c3ccc(F)cc3)oc2=O)CC1,16.97,-9.794
[H][C@@]12CCCO[C@]1([H])[C@H](Oc1ccccn1)CN2C(=O)CN(C)C,-33.08 & -10.47,-13.3 & -2.016
CCCC(=O)N1CCC(c2nc(O)c3c(n2)CCN(C2CCCC2)C3)C1 (stereo not shown),-6.743,-1.383
O=C(O)C(F)(F)F.O=C(c1cccc(F)c1)N1CCC2(CC1)CN(c1ccccn1)CCO2,25.24,-8.51
COCCN1CCN(CC(O)c2ccc(C(F)(F)F)cc2)CC1 (stereo not shown),18.16,-9.971
O=C(O)C(F)(F)F.O=C(c1ccncc1)N1CCC2(CC1)C(=O)Nc1ccccc12,-2.334 & 0.8906,-3.435 & 2.588
Cn1cc(CN2CCC(F)(F)C3(CCN(c4ncccn4)C3)C2)cn1.O=C(O)C(F)(F)F.O=C(O)C(F)(F)F (stereo not shown),18.37,10.83
Cc1cc2nc(CN(C)c3ccccc3)cc(=O)n2o1,8.963,-3.156
[H][C@]12CC[C@]([H])(CN(C(C)=O)C1)N(Cc1ccc(Cn3cccn3)cc1)C2,28.19,-3.923
CC(=O)N(C)c1nc(Cn2nnnc2C2CCCC2)cs1,-3.524,-12.12
CC[C@H]1CN(S(C)(=O)=O)CC[C@H]1CC(=O)NCCOC,-3.236 & -4.692,7.218
COCCC(=O)N1CC2(CCN(Cc3ccoc3)C2)C1,-44.46,-21.78
O=C(NCC1=CCCCC1)C(c1cccnc1)N1CCOCC1 (stereo not shown),-7.083,-4.136 & -0.7234
Cc1cccc(C)c1NC(=O)CC(CN1CCN(C)CC1)C(=O)O (stereo not shown),86.76 & 77.94,-3.411
Cc1ccc(CN2CCC3(CCC3NS(=O)(=O)c3ccccc3)CC2)o1.O=C(O)C(F)(F)F (stereo not shown),-16.54 & 0.05626,-0.5681
COC(CNC(=O)C1CCN(S(C)(=O)=O)CC1)c1ccc(C)s1 (stereo not shown),3.775,-2.858
CC(C)n1cnnc1CNC(=O)CCCOc1ccccc1Cl,-14.06 & 1.723,-23.51
Cc1nc(CN2CCCC(CCc3ccccc3C)C2)c[nH]1 (stereo not shown),-5.547,-17.82
Cc1cc2c(cc1CN1CCCCC1CCn1ccnc1C)OCO2 (stereo not shown),-1.552,16.63 & 3.275
O=C(c1cnc2c(cnn2C2CCCC2)c1)N1CCCSCC1,1.183 & 15.98,2.913
Cc1ncnc2c1CCN(C(=O)c1ccncc1F)CC2.O=C(O)C(F)(F)F,-4.766,-14.62
CCc1noc(CN(C)CCC(=O)Nc2ccc(C#N)c(Cl)c2)n1,19.25 & 8.729,16.33
CC(C)(C)C1SCC(=O)Nc2c1c(O)nn2C1CCCCC1 (stereo not shown),-7.616,-6.544
CCc1nnc(Nc2cc(C)nc(C3CCN(c4cnccn4)C3)n2)s1 (stereo not shown),-3.768,0.5203
[H][C@@]12OCCN(S(=O)(=O)C3CC3)[C@@]1([H])CC[C@H]2OC,22.13,-14.75
O=c1n(CC2CC2)nc(C2CCNCC2)n1Cc1ccccc1,-4.225,-11.97
O=C(N[C@@H]1CCC[C@@H](N2CCCC2)[C@@H]1O)c1cc2ccccc2[nH]1,16.33,-27.58
Clc1cccnc1N1CCC(NCc2cccc3cn[nH]c23)C1 (stereo not shown),12.54,-0.9646
COc1ccccc1CC(NC(=O)N1CCOCC1)C(C)C (stereo not shown),3.206 & 5.324,11.98
CSc1ccccc1CC1CCCS(=O)(=O)C1 (stereo not shown),-19.67,-6.58
c1ccc(Cc2noc(CN3CCc4cncnc4C3)n2)cc1,-4.486,4.826
O=C(NCCC1CCN(CC(F)(F)F)CC1)C1CCCOC1 (stereo not shown),7.483,-12.46
O=C(NCCN1CCOCC1)c1scnc1Cl,28.7,4.175
O=C(O)C(F)(F)F.O=C(O)C(F)(F)F.[H][C@@]12OCCN(CC3CCOCC3)[C@@]1([H])CC[C@H]2OCCN1CCCC1,-19.25,-5.599
CC(C)(C)CN(CCC#N)C(=O)Cc1ccc(-n2cnnn2)cc1,0.1565 & -27.38,0.02366
[H][C@@]12COC[C@]1([H])[C@@H](OCC1CCOCC1)CN2Cc1ccco1,-6.432,-4.097
COC(=O)N1CCCC(NC(=O)NCc2cccc(C)n2)C1 (stereo not shown),17.3,23.41
CCn1cnnc1CNC(=O)N1CCC(CN2CCOCC2)CC1,10.78,5.484
[H][C@]12CNC[C@@]1(C(=O)NCCS(=O)(=O)NC)CN(C1CCCC1)C2,10.35,-2.088
CSc1ncccc1C(=O)NCc1ccc(CS(=O)(=O)NC(C)C)cc1,-12.87,-15.95
Cc1c(C(C)NCC2CCCC2)cnn1-c1ccc(F)cc1F (stereo not shown),31.34,19.17
O=S(=O)(NC1CCC2(CC1)OCCO2)c1ccccc1Br,-27.38 & -1.218,-18.26
CCc1cc(N2CCC(NCCc3nc(C)c(C)s3)CC2)nc(C)n1,20.35,2.823
COCCn1ccc2c(NC(=O)c3n[nH]c4c3CCC4)cccc21,50.63,33.58
CC(=O)c1cccc(NC(=O)CN2CCCC(C3OCCO3)C2)c1 (stereo not shown),-9.465 & -6.993,-12.78
CC(C)COCCNC1CCN(c2ccccn2)CC1,1.578,7.658 & -5.145
OCCNc1cc(-c2ccccc2)ncn1,-13.88,-26.33
COc1ccc(C)cc1C(C)NC(=O)Cn1ccc(=O)n(C)c1=O (stereo not shown),-24.84,-8.726
I.c1cc2c(cc1C1(CNC3=NCCN3)CCCC1)OCCO2,11.6,6.69
CN(CC(=O)NS(=O)(=O)c1cccs1)Cc1ccccc1,-40.9 & -10.91,-25.25
Fc1ccc(OCCNC2CCN(Cc3ccncc3)CC2)c(F)c1,-2.73 & -36.79,0.5663
COCCN1C(=O)CC(c2cccnc2)C12CCN(C)CC2 (stereo not shown),-12.55,4.689
CCNc1cc2c(nn1)CCN(C(=O)c1ccc3cc[nH]c3c1)C2,14.84,5.528
Cc1ccc(C(=O)NS(=O)(=O)c2ccccc2Br)c(=O)[nH]1,-7.225 & -1.982,0.7314
COc1cccc(-c2cc(C(=O)N3N=C(C)CC3(O)C(F)(F)F)[nH]n2)c1 (stereo not shown),2.787,11.52
Cn1ccnc1C(=O)N1CCCC(Cn2cc(CO)nn2)C1 (stereo not shown),-25.79,23.06
Cc1noc(C)c1CN(C)Cc1csc(-c2ncccn2)n1,19.07 & -4.236,4.919
COCC(=O)N1C[C@@H](c2cc(O)nc(C)n2)[C@H](c2ccccc2F)C1,-17.88,-1.342 & -5.224
CC(C)COCC1CN(Cc2cnn(C)c2)Cc2ncn(C)c21 (stereo not shown),2.143,29.22
CC(C)COC(=O)N1CCC2(CCNC2)C1.Cl (stereo not shown),13.82,23.44
CN(C)CC1(O)CCN(S(=O)(=O)c2ccc(F)c(F)c2)C1 (stereo not shown),-1.465,-36.98
CCN(CC)C1CCN(c2nccc(C3CCCC3)n2)C1 (stereo not shown),-6.421,11.29
CCn1nc(C)c(S(=O)(=O)Nc2ccccc2C(=O)OC)c1C,-13.01,-8.585
OC1(CN2CCC(Oc3cccc(C(F)(F)F)c3)CC2)CCNC1 (stereo not shown),74.22,34.69
CCN(c1ccc(C(=O)N2CCCCCC2)cc1)S(=O)(=O)CC,27.99,12.88
CC(C)c1nc(CN2CCN(C(=O)CN3CCOCC3)CC2)no1,-12.81,-6.917
Cc1cnn(CC(C)NCc2ccc(-n3cccn3)cc2)c1 (stereo not shown),-11.88,24.4
Cl.Cn1cncc1CN1CCc2nc3sccc3c(=O)n2CC1,-7.202,19.71 & 4.546
O=C(O)C(F)(F)F.[H][C@@]12CCN(CC(=O)N(C)C)C(=O)[C@@]1([H])CN(C1CCOCC1)C2,-10.07,5.589
CC1N(CC2CC2)C(=O)COC12CCN(Cc1nccs1)CC2.O=C(O)C(F)(F)F (stereo not shown),0.8087,-7.295
COc1ccc(C2Nc3cc(Cl)ccc3C3=NCCN32)cc1OC (stereo not shown),31.2,11.61
Cc1ccc(OC2(C(=O)O)CCN(C(=O)c3ccsc3)CC2)cn1,-13.92,-1.964
O=C([C@H]1CCCO1)N1Cc2nccn2CC(COc2cccnc2)C1 (stereo partly shown),-5.407,-15.99
CC(=O)N1CCOC(c2c(C(=O)NC(C)(C)C)sc3ccccc23)C1 (stereo not shown),-5.626,-2.282

Some entries from above, unchanged:

compound	Mtb glucose medium	Mtb cholesterol medium
[H][C@@]12CCCO[C@]1([H])[C@H](Oc1ccccn1)CN2C(=O)CN(C)C	-33.08 & -10.47	-13.3 & -2.016
CC1N(CC2CC2)C(=O)COC12CCN(Cc1nccs1)CC2.O=C(O)C(F)(F)F (stereo not shown)	0.8087	-7.295
O=C(c1cnc2c(cnn2C2CCCC2)c1)N1CCCSCC1	1.183 & 15.98	2.913
COCCC(=O)N1CC2(CCN(Cc3ccoc3)C2)C1	-44.46	-21.78
c1ccc(Cc2noc(CN3CCc4cncnc4C3)n2)cc1	-4.486	4.826
CCn1cnnc1CNC(=O)N1CCC(CN2CCOCC2)CC1	10.78	5.484
CCc1nnc(Nc2cc(C)nc(C3CCN(c4cnccn4)C3)n2)s1 (stereo not shown)	-3.768	0.5203
CCNC(=O)C1CCN(Cn2nc(-c3ccc(F)cc3)oc2=O)CC1	16.97	-9.794
CCc1noc(CN(C)CCC(=O)Nc2ccc(C#N)c(Cl)c2)n1	19.25 & 8.729	16.33

The values are deposited in ChEMBL (CHEMBL3988442, “University of Dundee, Small-Polar-MMV Screening Library” (2021)).